## Library screen at single concentrations

The chains behind the UniProt entries cited, without tags or fusion partners. Residues count along the entry.
UniProt Q8IDJ8, 1-583: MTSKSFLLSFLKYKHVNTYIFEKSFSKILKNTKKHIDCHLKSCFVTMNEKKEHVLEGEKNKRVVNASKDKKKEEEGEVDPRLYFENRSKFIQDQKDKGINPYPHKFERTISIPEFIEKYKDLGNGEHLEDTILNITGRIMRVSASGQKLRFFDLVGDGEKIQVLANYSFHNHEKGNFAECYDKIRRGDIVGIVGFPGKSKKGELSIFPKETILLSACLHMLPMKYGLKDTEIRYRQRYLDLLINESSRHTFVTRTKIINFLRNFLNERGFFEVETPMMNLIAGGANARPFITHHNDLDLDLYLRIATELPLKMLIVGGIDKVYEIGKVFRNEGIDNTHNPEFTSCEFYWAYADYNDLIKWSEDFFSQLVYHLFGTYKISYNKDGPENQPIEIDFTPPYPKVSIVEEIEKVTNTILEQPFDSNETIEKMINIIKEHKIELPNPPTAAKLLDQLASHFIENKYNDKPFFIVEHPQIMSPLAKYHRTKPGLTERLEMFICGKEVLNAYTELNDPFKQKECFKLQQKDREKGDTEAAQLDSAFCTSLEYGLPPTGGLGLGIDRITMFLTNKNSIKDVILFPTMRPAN
UniProt A4I591, 1-473: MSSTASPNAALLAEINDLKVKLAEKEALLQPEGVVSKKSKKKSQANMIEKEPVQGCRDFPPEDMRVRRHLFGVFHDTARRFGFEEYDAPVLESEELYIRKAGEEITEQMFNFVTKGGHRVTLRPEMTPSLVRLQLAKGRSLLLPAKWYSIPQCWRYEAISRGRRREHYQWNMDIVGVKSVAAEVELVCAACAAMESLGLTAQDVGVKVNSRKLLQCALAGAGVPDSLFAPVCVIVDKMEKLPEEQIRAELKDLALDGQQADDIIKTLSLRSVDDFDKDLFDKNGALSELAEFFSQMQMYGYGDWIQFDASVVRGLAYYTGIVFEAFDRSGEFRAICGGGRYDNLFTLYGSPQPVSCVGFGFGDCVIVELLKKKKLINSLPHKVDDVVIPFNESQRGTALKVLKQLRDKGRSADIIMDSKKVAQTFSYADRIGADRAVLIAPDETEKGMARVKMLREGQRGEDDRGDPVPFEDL

Measurements from “University of Dundee, Small-Polar-MMV Screening Library” (2021), ChEMBL document CHEMBL3988442.

Values are the deposited “Percent Effect”, in %. The record does not define 0% and 100%; most values in the screen are far below 50% and negative numbers occur (in some assays of this library far below -100). The compounds are a random part of those screened. Two or more numbers in one place are separate tests of the same structure; such repeats can differ widely. A dash means the value is not listed here; it may have been measured.

Leishmania in macrophages: 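Cell assay of Leishmania donovani living inside macrophages; the read-out is not stated. Compounds at 30 µM. The record gives no direction; compounds that gave an IC50 in retests scored well above the rest, so higher reads as stronger inhibition. About 69,000 compounds were tested under these conditions; 1.5% (about 1,000) showed 50% or more at least once.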
PfKRS1: 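Lysine-tRNA ligase, Plasmodium falciparum 3D7 (UniProt Q8IDJ8). Enzyme assay of the cytosolic lysyl-tRNA synthetase in 384-well plates, read by luminescence. Concentration: 30 µM. Higher reads as stronger inhibition, judged from the few compounds that gave an IC50. Size under these conditions: about 69,000 compounds, about 49 of them at 50% or above in at least one test.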
LiHisRS: 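Enzyme assay of histidyl-tRNA synthetase; the read-out is not stated. Target: Histidine-tRNA ligase, Leishmania infantum (UniProt A4I591). Concentration: 30 µM. Direction is inferred from retests: higher values go with stronger inhibition. The assay is labelled LdHisRS but filed under L. infantum. About 69,000 compounds were tested under these conditions; 0.6% (about 410) showed 50% or more at least once.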

| SMILES | Leishmania in macrophages | PfKRS1 | LiHisRS |
|---|---|---|---|
| `CCOCCCNC(=O)CN(c1cccc(F)c1)S(C)(=O)=O` | 13.1 | 6.793 | 9.655 |
| `Cc1n[nH]c(-c2ccc(NC(=O)C(C)N3CCN(C)CC3)cc2)n1` (configuration not stated) | 3.658 | 3.027 | 5.882 |
| `CSCc1cccc(S(=O)(=O)NCCCn2ccnc2)c1` | 16.81 | 0.1313 | 17.92 |
| `CC(C)c1cnc(CN2CCCC(c3ccn[nH]3)C2)o1` (configuration not stated) | 10.87 | -3.644 | 6.452 |
| `OC(COc1ccccc1)CN1CCc2c(ncn2C2CC2)C1` (configuration not stated) | 19.19 | 1.113 | 14.86 |
| `COC[C@@H]1CCCN1C(=O)CCc1c(C)nn(C)c1C` | 4.092 | 2.621 | 12.39 |
| `Cc1ccc(F)cc1NC(=O)CCn1cncn1` | -41.59 | 1.538 | 11.29 |
| `[H][C@@]12CN(CCOC)C[C@]1([H])[C@H](OC)CCN2C(=O)CCc1ccccc1` | 21.22 | - | - |
| `CCN1CCN(C(=O)c2cc(-c3cccn3C)n[nH]2)[C@H]2CS(=O)(=O)C[C@H]21` | - | 2.93 | 3.614 |
| `NC(=O)CS(=O)(=O)Cc1ccc(F)cc1` | 4.984 | 4.284 | 18.31 |
| `CC(C)C1CCC(N2CCN(CCS(C)(=O)=O)CC2)CC1` (configuration not stated) | 7.991 | 3.309 | 6.25 |
| `CCc1nccn1C1CCCN(C(=O)Cc2cn3ccccc3n2)C1` (configuration not stated) | 21.62 | 6.267 | 21.62 |
| `OC(COCc1cccs1)Cn1cc(Cl)cn1` (configuration not stated) | 11.71 | 10.49 | 15.05 |
| `CN(C)CCN1CCO[C@@H]2CN(C(=O)c3cccs3)CC[C@@H]2C1` | - | 2.224 | 0 |
| `CCNC(=O)CN(CC)Cc1nc2c(F)cccc2n1CC` | -2.673 | 4.379 | 15.79 |
| `CS(=O)(=O)N1CCC(Oc2cnccn2)CC1` | 1.45 | 3.709 | 20.39 |
| `COCc1nn(C(C)C)c2c1CCN(Cc1cccs1)C2` | - | -1.521 | 13.33 |
| `COc1ccc(CN2CCn3cc(CN4CCN(C)CC4)nc3C2)cc1.O=C(O)C(F)(F)F.O=C(O)C(F)(F)F.O=C(O)C(F)(F)F` | 27.11 | - | - |
| `COc1ccc(CCN(C)C(C(=O)O)c2ccc(F)c(C)c2)cc1OC` (configuration not stated) | -12.16 | -3.482 | 0 |
| `[H][C@@]12CN(Cc3ccncc3)CC[C@]1([H])CN(c1cncnc1)C2` | 39.39 | - | - |
| `CC(C)N1CCC(c2cnc(-c3cn[nH]c3)cn2)CC1` | -52.07 | -0.1557 | 9.859 |
| `CC1CCN(C(=O)CN2CC(c3nc(C4CC4)no3)C2)CC1` | - | 1.042 | 25.97 |
| `CC(C)N1CCO[C@H]2CN(C(=O)c3ccncc3F)C[C@H]21` | - | 1.648 | -17.09 |
| `c1ccc(CN2CCC(CNc3ncnc4c3CCNCC4)CC2)cc1` | -23.91 | 0.5403 | 12.24 |
| `CC(C)Cc1noc(CN(C)C2CCS(=O)(=O)C2)n1` (configuration not stated) | -13.4 | 6.837 | 15.69 |
| `Cc1nn(C)c(C)c1NC(=O)CNc1cccc(CC(F)(F)F)c1` | 13.41 | 4.868 | 17.78 |
| `COc1cc(NC(=O)c2cc(Cl)ccc2F)c(C(=O)N(C)C)cc1OC` | 18.72 | 6.953 | 9.821 |
| `Cc1ccc(OCC(=O)NC2CC2)nc1` | 26.41 | 4.466 | 12.9 |
| `CCN1CCC(NC(=O)CN2CCCC2Cn2cccn2)CC1` (configuration not stated) | -28.91 | 1.32 | 0 |
| `CC(C)n1c(=O)nc2n1C(=O)N(c1ccc(F)cc1)C2` | 21.88 | 7.046 | 22.86 |
| `CS(=O)(=O)N1C[C@@H]2CC[C@H](C1)N(C(=O)CCn1cnc3ccccc31)C2` | - | 4.667 | -3.306 |
| `COc1ccccc1N1CCN(C(=O)CCn2ccnc2C)CC1(C)C` | 18.96 | 2.182 | 17.17 |
| `O=C(O)C(F)(F)F.O=C(O)C(F)(F)F.O=C(O)CN1CCC(F)(F)C2(CCN(c3ccccn3)C2)C1` (configuration not stated) | -2.655 | - | - |
| `Cc1cc(N2CCN(C(=O)[C@@H]3C[C@@H]4C=C[C@H]3C4)CC2)cc(C)n1` | - | 11.19 | 12.9 |
| `CC1c2ncc(CNC(=O)C3CC3)n2CCN1Cc1cccnc1` (configuration not stated) | - | 2.736 | 5.556 |
| `CCn1cc(CN(C)C(=O)c2cc(C(F)(F)F)n(C)n2)cn1` | 2.791 | 4.721 | 15 |
| `[H][C@]12CO[C@H](CNS(C)(=O)=O)[C@@]1([H])CCN(Cc1cccnc1)C2` | 14.05 | - | - |
| `COc1cccc(CSCC2=Nc3ccccc3S(=O)(=O)N2)c1` | 23.86 | 11.85 | 15.32 |
| `C[S+]([O-])CCNC(=O)N1CCSC(C)(C)C1` (configuration not stated) | 1.688 | 1.848 | 18.57 |
| `CCc1nn(C)c(Cl)c1CN1C[C@H](NC(=O)CCO)[C@@H](C(C)C)C1` | -5.373 | 4.957 | 5.128 |
| `O=C1C[C@H]2[C@H](CCN2C(=O)c2cc[nH]n2)N1Cc1cccnc1` | - | 2.92 | 15.38 |
| `COc1ncccc1NC(=O)NCC(O)c1ccc(F)cc1F` (configuration not stated) | 12.39 | 0.6291 | 16.22 |
| `CNC(=O)c1cccc(NCC(=O)Nc2cc(C)nn2C)c1C` | 27.69 | 3.374 | 13.33 |
| `CSC(C)(C)CNC(=O)NC1CCN(CC=C(C)C)CC1` | -11.27 | -3.522 | -6.25 |
| `CN(C)C(=O)[C@@H]1C[C@@H]2CCN(Cc3nccs3)C[C@@H]2O1` | - | 6.508 | 9.023 |
| `Cc1cc(C(=O)N2CCc3c(CN(C)C)nn(C)c3C2)[nH]n1` | -3.194 | 3.756 | 13.76 |
| `CCN(CC)C(=O)Cn1cc(-c2nc(-c3ccccc3C)no2)nn1` | 26.97 | 4.358 | 13.11 |
| `O=C(O)C(c1ccc2c(c1)OCCO2)N1CCC(N2CCSCC2)CC1` (configuration not stated) | 38.71 | 4.013 | 24.47 |
| `[H][C@@]12CCCO[C@]1([H])[C@H](N1CCOCC1)CN(C(=O)c1cccn1C)C2` | 2.369 & 18.69 | - | - |
| `CN(C)C(=O)C1CCC2(CCN(C(=O)Nc3cccc(F)c3)CC2)O1` (configuration not stated) | 22.51 | 3.94 | 7.921 |
| `CN1CCOC(CNC(=O)Cc2ccccc2F)C1` (configuration not stated) | 39.15 | 3.563 | -17.02 |
| `COCCOc1ccc(C(=O)N[C@@H]2CNCCC[C@H]2O)cc1` | 7.07 | 2.238 | 25 |
| `CC(NC(=O)NCCCc1n[nH]c(N)c1C#N)c1ccccc1F` (configuration not stated) | 18.48 | 0.5656 | 8.475 |
| `CCn1cc(-c2cc(-c3cc(CN(C)C)cs3)nc(N)c2C#N)c(C)n1` | 31.7 | 4.285 | 27.42 |
| `CC1CCN(C(=O)c2ccn(COc3ccc(F)cc3)n2)CC1` | 1.521 | 2.867 | 16.04 |
| `[H][C@]12CCCCN1CCC[C@H]2CNC(=O)Cn1ccc2cc(OC)ccc21` | 29.51 | - | - |
| `CCC(=O)N1CCC2(CCC(N3CCCC3)c3ccccc32)CC1` (configuration not stated) | - | 3.424 | 11.97 |

Some entries from above, unchanged:

{"smiles": "O=C1C[C@H]2[C@H](CCN2C(=O)c2cc[nH]n2)N1Cc1cccnc1", "PfKRS1": 2.92, "LiHisRS": 15.38}
{"smiles": "CCc1nn(C)c(Cl)c1CN1C[C@H](NC(=O)CCO)[C@@H](C(C)C)C1", "Leishmania in macrophages": -5.373, "PfKRS1": 4.957, "LiHisRS": 5.128}
{"smiles": "[H][C@@]12CN(Cc3ccncc3)CC[C@]1([H])CN(c1cncnc1)C2", "Leishmania in macrophages": 39.39}
{"smiles": "COc1cc(NC(=O)c2cc(Cl)ccc2F)c(C(=O)N(C)C)cc1OC", "Leishmania in macrophages": 18.72, "PfKRS1": 6.953, "LiHisRS": 9.821}